PubChem BioAssay AID652243 | Drosophila RNAi Screening Center | 2013

Purpose: 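Fly genes required for human androgen receptor driven transcription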 (primary screen)
System: Drosophila S2R+ cells
Reagents: long dsRNA against Drosophila genes
Timing: 72 h (48 h, then 24 h hormone)
Challenge: synthetic androgen R1881 at 10 nM for 24 h
Measured: 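Per-well raw luminescence of the androgen-driven firefly reporter and of the Renilla control, two replicates each, without normalisation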
Reading the numbers: firefly reporter light: higher = more light from androgen-responsive reporter; Renilla control light: higher = more constitutive control signal (cell number, transfection)
Rule for the call: 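Across duplicate plates, a knock-down whose log firefly/Renilla ratio shifted a set fold down or up from the GFP/LacZ control mean was a hit; the downward cut appears as both 1.5 and 3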
Meaning of the calls: active = hit: reporter lowered or raised; inactive = no hit
The deposit covers about 24,000 reagents; shown is a random part of those with a known target gene and a result. Of all reagents, 246 (1%) are marked active. 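Plates not normalised; calls are printed but the firefly/Renilla ratio behind them is not deposited; fold cut for lowering reported inconsistently.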 The raw values are shown without normalisation. Names joined by + are all predicted targets of the reagent. The record does not give: the amount of reagent.

Gene	amplicon	firefly reporter light, replicate 1	firefly reporter light, replicate 2	Renilla control light, replicate 1	Renilla control light, replicate 2	Outcome
Ir52d (Ionotropic receptor 52d)	DRSC06264	47456	93863	8.92e5	8.92e5	inactive
cav (caravaggio)	DRSC15995	85669	1.25e5	5.34e5	6.39e5	inactive
cav (caravaggio)	DRSC26206	3.34e5	3.24e5	7.43e5	8.22e5	inactive
CheB74a (Chemosensory protein B 74a)	DRSC38835	7.96e5	8.42e5	1.72e6	1.56e6	inactive
CG32547	DRSC19263	4.52e5	4.96e5	6.12e5	4.67e5	inactive
CG32547	DRSC19474	3.29e5	3.75e5	3.80e6	3.58e6	inactive
Septin1 (Septin 1)	DRSC20573	4.05e5	2.20e5	3.71e5	2.32e5	inactive
OS9 + Hf	DRSC03392	9.48e5	1.07e6	1.19e6	1.26e6	inactive
Slimp (Seryl-tRNA synthetase-like insect mitochondrial protein)	DRSC13656	39477	59113	71167	93818	inactive
Nup160 (Nucleoporin 160kD)	DRSC02774	1.10e5	1.30e5	1.01e6	1.42e6	inactive
CG12236	DRSC17831	2.51e5	2.72e5	2.14e6	2.54e6	inactive
CG12236	DRSC25773	2.23e5	3.44e5	6.01e5	3.65e5	inactive
CG14760	DRSC06495	1.66e5	1.37e5	1.61e6	1.36e6	inactive
CG14760	DRSC23957	6.43e5	6.94e5	4.34e5	4.41e5	inactive
robl62A	DRSC08153	88079	54846	1.07e6	8.68e5	inactive
Frq1 (Frequenin 1)	DRSC19961	5.24e5	7.60e5	3.32e6	4.10e6	inactive
Frq1 (Frequenin 1)	DRSC25439	9.90e5	7.44e5	1.05e6	1.17e6	inactive

2 entries from above, limited to “Renilla control light, replicate 1”.
CG12236 [DRSC25773]	6.01e5
CG14760 [DRSC06495]	1.61e6

Continued.
Gene	amplicon	firefly reporter light, replicate 1	firefly reporter light, replicate 2	Renilla control light, replicate 1	Renilla control light, replicate 2	Outcome
gdrd (goddard)	DRSC10020	1.20e5	1.49e5	9.85e5	1.50e6	inactive
beat-IIa (beaten path IIa)	DRSC14813	3.11e5	3.56e5	3.45e6	3.27e6	inactive
beat-IIa (beaten path IIa)	DRSC14814	97704	98997	1.21e6	1.22e6	inactive
CG4741	DRSC04485	2.41e5	2.34e5	1.49e6	1.70e6	inactive
CG4741	DRSC25673	9.50e5	1.03e6	1.49e6	1.67e6	inactive
Gar1 (Gar1 ribonucleoprotein)	DRSC04441	2.38e5	2.64e5	1.70e6	1.37e6	inactive
Gar1 (Gar1 ribonucleoprotein)	DRSC25331	7.15e5	6.92e5	8.53e5	9.26e5	inactive
CG13135	DRSC02232	1.28e5	96453	1.15e6	8.44e5	inactive
CG13135	DRSC27657	4.38e5	3.30e5	4.86e5	7.73e5	inactive
CG8668	DRSC03101	5.86e5	8.30e5	1.43e6	1.13e6	inactive
CG8668	DRSC24942	8.71e5	8.36e5	9.44e5	9.23e5	inactive
CG14234	DRSC19317	6.15e5	5.36e5	6.18e5	4.24e5	inactive
CG14234	DRSC19589	1.46e5	1.57e5	6.04e5	5.30e5	inactive
gfzf (GST-containing FLYWCH zinc-finger protein)	DRSC12506	71089	67339	2.88e5	4.56e5	inactive
gfzf (GST-containing FLYWCH zinc-finger protein)	DRSC21874	1.07e6	9.89e5	2.48e6	1.43e6	inactive
CG18249	DRSC15318	65605	65998	3.49e5	3.61e5	inactive
Yp1 (Yolk protein 1)	DRSC18731	2.34e5	3.53e5	1.74e6	2.40e6	inactive
Yp1 (Yolk protein 1)	DRSC27876	5.56e5	3.22e5	3.56e6	2.05e6	inactive
Obp19c (Odorant-binding protein 19c)	DRSC20528	2.36e5	1.12e5	7.08e5	3.11e5	inactive
plum	DRSC16054	66372	52964	4.52e5	4.01e5	inactive
CG10903	DRSC14281	93770	1.23e5	1.76e6	1.36e6	inactive
Fcp1 (TFIIF-interacting CTD phosphatase)	DRSC04121	5.98e5	6.29e5	9.61e5	9.03e5	inactive
Fcp1 (TFIIF-interacting CTD phosphatase)	DRSC26715	4.16e5	4.40e5	8.40e5	7.10e5	inactive
Fcp1 (TFIIF-interacting CTD phosphatase)	DRSC36881					inactive
